Patent publication US20050287648A1 (UNIVERSITY OF ROCHESTER, published 2005)
These are yes or no findings as the source states them, for the method shown. Some entries that bind do so weakly or less than the wild type.

By UniProt entry, the sequences of proteins in these tests, tags left out. Where a name states a change or a piece, a line headed by the entry shows the natural chain unless it says otherwise.
UniProt P41238: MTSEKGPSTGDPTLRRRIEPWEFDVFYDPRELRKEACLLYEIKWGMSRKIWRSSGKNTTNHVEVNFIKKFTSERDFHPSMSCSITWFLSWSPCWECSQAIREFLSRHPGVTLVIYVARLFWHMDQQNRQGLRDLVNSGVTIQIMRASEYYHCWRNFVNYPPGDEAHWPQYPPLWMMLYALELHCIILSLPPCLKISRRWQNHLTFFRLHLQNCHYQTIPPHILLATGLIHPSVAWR

Experiments:
[1] = molecular target: APOBEC-1 (apolipoprotein B mRNA editing catalytic subunit 1) (Homo sapiens (Human)) (UniProt P41238); assay: yeast two-hybrid (MatchMaker; his- selection and lacZ filter lift)
[2] = molecular target: APOBEC-1 (apolipoprotein B mRNA editing catalytic subunit 1) (Homo sapiens (Human)) (UniProt P41238); assay: yeast two-hybrid (MatchMaker; his- selection and lacZ filter lift), figure legend

binding [1]: binds
binding [2]: binds
Substance: APOBEC-1 (apolipoprotein B mRNA editing catalytic subunit 1) (from UniProt P41238 1-236) (enzyme)
